# Laboratory results reported in the supplement of paper PMC12067093, “Discovery and optimisation of a covalent ligand for TRIM25 and its application to targeted protein ubiquitination” (Chemical Science, 2025).
# By UniProt entry, the sequences of proteins in these tests, tags left out. Where a name states a change or a piece, a line headed by the entry shows the natural chain unless it says otherwise.
# UniProt Q02218: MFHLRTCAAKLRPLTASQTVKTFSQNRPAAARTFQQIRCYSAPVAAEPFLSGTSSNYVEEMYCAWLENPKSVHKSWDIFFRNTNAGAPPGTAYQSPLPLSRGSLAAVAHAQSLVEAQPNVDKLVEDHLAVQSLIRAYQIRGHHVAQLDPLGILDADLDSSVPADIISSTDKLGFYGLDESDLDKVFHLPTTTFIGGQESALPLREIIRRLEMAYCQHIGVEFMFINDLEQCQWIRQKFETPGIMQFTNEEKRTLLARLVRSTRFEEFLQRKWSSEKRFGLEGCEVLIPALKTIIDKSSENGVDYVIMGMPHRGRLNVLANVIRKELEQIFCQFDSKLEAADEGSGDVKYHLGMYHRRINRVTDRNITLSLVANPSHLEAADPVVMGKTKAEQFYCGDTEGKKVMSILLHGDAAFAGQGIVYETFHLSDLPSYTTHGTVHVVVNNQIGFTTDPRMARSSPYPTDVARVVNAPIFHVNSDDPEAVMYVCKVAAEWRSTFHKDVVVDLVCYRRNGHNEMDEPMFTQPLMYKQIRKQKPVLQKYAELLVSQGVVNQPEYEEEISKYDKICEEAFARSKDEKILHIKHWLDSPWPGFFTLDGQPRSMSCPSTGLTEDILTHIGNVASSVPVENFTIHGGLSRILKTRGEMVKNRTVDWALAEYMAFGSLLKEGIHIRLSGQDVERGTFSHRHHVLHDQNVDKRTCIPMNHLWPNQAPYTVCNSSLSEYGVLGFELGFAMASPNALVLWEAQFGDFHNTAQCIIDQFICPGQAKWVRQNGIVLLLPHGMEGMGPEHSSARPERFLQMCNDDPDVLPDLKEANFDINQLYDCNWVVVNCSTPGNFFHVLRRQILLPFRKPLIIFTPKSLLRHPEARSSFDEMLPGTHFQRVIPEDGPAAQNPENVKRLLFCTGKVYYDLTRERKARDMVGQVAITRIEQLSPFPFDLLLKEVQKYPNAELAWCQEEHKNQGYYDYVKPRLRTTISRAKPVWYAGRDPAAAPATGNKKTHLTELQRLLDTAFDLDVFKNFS
# UniProt Q6ZVK8: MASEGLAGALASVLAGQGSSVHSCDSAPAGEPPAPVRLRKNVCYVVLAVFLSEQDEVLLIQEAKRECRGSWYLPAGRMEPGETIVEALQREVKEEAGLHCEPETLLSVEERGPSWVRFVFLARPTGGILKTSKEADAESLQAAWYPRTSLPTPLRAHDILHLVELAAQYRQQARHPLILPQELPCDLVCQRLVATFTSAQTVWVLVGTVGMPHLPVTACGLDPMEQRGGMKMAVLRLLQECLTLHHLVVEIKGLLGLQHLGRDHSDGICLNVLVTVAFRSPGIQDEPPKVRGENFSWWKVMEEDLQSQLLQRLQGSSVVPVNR
# UniProt Q56VL3: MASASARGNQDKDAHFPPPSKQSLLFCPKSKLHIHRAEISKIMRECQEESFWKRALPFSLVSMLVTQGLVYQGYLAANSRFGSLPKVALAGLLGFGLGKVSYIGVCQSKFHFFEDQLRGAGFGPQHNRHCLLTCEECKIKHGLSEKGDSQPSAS
# UniProt Q5SRE5: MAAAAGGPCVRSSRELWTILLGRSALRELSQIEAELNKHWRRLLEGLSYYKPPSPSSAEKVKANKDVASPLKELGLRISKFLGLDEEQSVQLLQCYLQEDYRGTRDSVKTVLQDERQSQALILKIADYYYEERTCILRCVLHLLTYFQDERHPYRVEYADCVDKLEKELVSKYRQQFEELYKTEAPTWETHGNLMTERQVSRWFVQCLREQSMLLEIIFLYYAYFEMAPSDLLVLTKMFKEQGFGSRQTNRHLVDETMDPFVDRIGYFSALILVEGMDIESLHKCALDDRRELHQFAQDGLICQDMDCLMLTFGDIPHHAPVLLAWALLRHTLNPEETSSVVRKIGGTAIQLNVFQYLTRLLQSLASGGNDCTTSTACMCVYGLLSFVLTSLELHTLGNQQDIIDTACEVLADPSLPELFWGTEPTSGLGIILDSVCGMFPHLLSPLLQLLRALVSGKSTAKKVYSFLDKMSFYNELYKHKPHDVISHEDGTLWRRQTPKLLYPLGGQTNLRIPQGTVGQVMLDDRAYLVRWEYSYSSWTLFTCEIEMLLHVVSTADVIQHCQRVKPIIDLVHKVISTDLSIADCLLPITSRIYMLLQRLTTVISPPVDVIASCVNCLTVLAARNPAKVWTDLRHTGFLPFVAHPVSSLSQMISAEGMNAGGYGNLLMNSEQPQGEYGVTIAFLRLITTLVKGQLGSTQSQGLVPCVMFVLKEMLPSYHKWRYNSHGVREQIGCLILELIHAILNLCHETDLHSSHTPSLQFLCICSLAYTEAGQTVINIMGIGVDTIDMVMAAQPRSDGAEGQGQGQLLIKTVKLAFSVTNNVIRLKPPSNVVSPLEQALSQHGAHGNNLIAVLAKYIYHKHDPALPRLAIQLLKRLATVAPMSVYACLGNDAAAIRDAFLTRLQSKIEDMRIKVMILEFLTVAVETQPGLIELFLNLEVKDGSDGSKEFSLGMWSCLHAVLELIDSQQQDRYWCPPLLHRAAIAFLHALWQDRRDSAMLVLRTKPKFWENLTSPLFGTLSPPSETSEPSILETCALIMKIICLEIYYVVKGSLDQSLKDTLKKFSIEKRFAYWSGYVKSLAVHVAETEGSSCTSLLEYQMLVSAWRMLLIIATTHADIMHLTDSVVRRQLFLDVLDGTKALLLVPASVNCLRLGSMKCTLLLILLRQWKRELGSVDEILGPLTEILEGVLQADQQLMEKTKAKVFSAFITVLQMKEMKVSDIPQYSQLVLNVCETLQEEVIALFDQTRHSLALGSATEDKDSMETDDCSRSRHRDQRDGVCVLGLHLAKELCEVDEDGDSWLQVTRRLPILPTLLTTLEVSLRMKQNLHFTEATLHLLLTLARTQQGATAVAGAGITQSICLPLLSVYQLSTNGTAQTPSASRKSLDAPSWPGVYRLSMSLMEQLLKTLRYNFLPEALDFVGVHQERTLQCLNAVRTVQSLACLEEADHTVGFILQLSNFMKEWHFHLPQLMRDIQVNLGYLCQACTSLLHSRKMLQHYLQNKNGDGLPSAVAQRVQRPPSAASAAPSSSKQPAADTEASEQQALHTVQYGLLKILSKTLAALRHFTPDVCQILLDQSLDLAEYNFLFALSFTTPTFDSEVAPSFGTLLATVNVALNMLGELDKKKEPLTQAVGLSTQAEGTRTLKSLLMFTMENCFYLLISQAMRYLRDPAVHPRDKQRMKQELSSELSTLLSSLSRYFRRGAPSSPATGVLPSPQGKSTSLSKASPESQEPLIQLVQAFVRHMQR
# UniProt O15381: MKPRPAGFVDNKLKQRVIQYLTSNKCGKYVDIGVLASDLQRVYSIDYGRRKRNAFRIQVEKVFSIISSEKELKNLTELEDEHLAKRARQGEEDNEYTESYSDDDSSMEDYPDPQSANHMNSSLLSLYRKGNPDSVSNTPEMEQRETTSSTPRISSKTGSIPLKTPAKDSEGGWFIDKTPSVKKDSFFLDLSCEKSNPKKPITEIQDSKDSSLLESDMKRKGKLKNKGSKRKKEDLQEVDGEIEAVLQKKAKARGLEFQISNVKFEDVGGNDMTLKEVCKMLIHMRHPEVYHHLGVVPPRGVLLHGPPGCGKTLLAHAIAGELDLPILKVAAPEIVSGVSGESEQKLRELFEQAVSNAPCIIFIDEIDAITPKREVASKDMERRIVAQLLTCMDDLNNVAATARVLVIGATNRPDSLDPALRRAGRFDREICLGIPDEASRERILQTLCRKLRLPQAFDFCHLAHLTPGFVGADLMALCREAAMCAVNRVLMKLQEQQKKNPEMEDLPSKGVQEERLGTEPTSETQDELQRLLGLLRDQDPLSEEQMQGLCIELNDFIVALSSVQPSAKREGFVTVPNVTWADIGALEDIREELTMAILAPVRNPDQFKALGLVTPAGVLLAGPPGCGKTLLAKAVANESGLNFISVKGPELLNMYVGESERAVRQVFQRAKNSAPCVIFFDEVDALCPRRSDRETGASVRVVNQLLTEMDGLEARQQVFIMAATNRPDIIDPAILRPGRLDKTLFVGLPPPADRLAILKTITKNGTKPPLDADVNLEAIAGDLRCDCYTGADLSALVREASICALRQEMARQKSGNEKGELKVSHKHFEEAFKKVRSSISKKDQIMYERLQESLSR
# UniProt Q14980: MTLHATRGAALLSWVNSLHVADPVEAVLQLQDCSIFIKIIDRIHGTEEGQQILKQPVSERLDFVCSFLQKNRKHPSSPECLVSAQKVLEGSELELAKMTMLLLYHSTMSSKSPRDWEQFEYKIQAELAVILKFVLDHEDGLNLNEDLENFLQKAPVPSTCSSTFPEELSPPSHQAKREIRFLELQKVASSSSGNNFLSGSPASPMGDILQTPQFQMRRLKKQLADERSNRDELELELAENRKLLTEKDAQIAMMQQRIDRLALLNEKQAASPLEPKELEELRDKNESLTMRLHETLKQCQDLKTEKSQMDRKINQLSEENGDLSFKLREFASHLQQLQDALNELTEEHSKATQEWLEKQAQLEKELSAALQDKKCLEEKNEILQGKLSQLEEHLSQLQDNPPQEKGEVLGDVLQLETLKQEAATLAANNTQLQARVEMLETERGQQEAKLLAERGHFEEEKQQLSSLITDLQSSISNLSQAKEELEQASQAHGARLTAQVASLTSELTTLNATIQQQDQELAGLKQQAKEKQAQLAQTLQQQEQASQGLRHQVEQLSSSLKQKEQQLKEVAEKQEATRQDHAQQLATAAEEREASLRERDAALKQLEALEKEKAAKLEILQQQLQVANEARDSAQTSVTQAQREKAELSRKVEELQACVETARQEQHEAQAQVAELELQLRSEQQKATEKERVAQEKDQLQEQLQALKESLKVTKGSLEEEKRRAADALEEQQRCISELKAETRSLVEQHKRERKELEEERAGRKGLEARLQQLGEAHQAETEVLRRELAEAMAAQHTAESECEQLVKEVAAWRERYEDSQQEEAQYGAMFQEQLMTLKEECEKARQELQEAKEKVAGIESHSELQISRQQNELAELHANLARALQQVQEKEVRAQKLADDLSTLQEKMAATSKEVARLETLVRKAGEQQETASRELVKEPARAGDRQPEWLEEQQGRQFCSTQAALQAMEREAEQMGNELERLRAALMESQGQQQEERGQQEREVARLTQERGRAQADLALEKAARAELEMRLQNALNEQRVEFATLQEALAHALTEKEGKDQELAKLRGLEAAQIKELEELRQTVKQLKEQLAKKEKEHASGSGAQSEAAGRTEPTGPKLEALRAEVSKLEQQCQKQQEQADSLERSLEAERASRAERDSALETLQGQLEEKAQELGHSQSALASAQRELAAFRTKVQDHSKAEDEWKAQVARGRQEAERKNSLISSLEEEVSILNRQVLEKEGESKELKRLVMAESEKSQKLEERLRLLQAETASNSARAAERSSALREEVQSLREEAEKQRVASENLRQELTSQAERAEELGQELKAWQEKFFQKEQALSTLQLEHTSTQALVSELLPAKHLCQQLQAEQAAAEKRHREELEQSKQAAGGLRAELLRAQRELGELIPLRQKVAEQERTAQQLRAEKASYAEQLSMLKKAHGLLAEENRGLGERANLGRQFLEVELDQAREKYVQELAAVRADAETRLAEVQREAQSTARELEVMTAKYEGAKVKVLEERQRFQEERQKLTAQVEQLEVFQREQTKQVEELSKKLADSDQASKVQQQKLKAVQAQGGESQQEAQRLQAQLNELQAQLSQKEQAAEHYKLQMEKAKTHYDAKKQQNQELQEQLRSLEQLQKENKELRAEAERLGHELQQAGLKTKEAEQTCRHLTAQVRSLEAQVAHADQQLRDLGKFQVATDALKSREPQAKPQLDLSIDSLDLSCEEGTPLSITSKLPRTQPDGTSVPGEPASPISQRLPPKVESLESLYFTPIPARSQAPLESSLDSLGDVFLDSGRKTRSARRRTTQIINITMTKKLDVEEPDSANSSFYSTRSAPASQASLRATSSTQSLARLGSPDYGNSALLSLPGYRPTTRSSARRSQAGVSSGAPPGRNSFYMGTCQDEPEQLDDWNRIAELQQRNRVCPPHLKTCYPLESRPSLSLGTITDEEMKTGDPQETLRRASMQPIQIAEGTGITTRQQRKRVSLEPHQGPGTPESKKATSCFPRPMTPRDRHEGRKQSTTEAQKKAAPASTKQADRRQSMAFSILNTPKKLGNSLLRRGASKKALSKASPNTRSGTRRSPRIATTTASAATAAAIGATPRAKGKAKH
# UniProt Q9Y5Y2: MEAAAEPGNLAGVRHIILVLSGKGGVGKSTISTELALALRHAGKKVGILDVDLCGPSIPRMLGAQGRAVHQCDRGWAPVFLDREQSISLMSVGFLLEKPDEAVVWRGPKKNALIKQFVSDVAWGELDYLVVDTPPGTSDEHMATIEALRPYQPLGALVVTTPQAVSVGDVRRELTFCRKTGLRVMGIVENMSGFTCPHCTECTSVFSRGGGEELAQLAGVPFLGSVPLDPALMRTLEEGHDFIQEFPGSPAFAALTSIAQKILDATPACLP
# The list shows a part of the results.
# Compound: CC1Cc2ccccc2N1C(=O)C1CCCN(C1)C(=O)CCl (mixture of isomers) [TRIM25 ligand 11 (diastereomer mixture)]
# Assay: probe-labelled cysteine peptide fold change vs DMSO (competition) (log2 fold change); higher = less target engagement (more negative = stronger competition)
# Conditions: THP-1, incubation time: 4 h
# 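Also: competitive chemoproteomic profiling in live THP-1 cells with an iodoacetamide desthiobiotin (IA-DTB) probe, comparing probe-labelled peptide intensities in compound-treated cells against DMSO-treated controls.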
Target,probe-labelled cysteine peptide fold change (10 µM),probe-labelled cysteine peptide fold change (50 µM)
OGDH_Q02218_283_FGLEGCEVLIPALK (UniProt Q02218),0.113,-0.00551
NUDT18_Q6ZVK8_185+189_HPLILPQELPCDLVCQR (UniProt Q6ZVK8),-0.0276,0.194
NUP205_Q92621_1216_AQIEQVIANCEHK (UniProt Q92621),0.206,0.15
OCIAD2_Q56VL3_27_QSLLFCPK (UniProt Q56VL3),-0.065,-0.0766
NUP188_Q5SRE5_161_VEYADCVDK (UniProt Q5SRE5),0.394,0.321
NVL_O15381_803_EASICALR (UniProt O15381),0.0326,0.175
NUBP1_P53384_25_GASCQGCPNQR (UniProt P53384),-0.0889,-0.189
OGDH_Q02218_395_AEQFYCGDTEGK (UniProt Q02218),0.13,0.282
OAS3_Q9Y6K5_956_HWYQQCTK (UniProt Q9Y6K5),-0.273,-0.0723
OGFOD1_Q8N543_64_RTPFSHEVIVMDMDPFLHCVIPNFIQSQDFLEGLQK (UniProt Q8N543),-0.278,-0.106
NUP93_Q8N1F7_397_CDVTDNQSEVADK (UniProt Q8N1F7),0.118,-0.0788
NUMA1_Q14980_1930_VCPPHLK (UniProt Q14980),-0.177,-0.199
NUP153_P49790_148_SHLNFSMLESPALHCQPSTSSAFPIGSSGFSLVK (UniProt P49790),0.0821,-0.117
NUBP2_Q9Y5Y2_54_KVGILDVDLCGPSIPR (UniProt Q9Y5Y2),-0.0291,-0.0444
NUP155_O75694_104_RVPLPPELVEQFGHMQCNCMMGVFPPISR (UniProt O75694),-0.00238,0.0117
NUSAP1_Q9BXS6_64_KGNENQDESQTSASSCDETEIQISNQEEAERQPLGHVTK (UniProt Q9BXS6),-0.273,-0.0073
NT5DC1_Q5TFE4_139_YYFYDNYFDLPGALLCAR (UniProt Q5TFE4),0.416,0.718
OCIAD2_Q56VL3_130_HCLLTCEECK (UniProt Q56VL3),0.0401,-0.0916
OAS2_P29728_652_TRPVILDPAEPTGDVGGGDRWCWHLLAK (UniProt P29728),-0.256,-0.0825
NUP98_P52948_1234_HSTVHVDELCPLIVPNLGVAVIHDYADWVK (UniProt P52948),0.00413,-0.0378
NUP153_P49790_860_FKKPEGSWDCELCLVQNK (UniProt P49790),-0.102,-0.0529

# 2 consecutive records from above:
Target,probe-labelled cysteine peptide fold change (10 µM),probe-labelled cysteine peptide fold change (50 µM)
NUP153_P49790_148_SHLNFSMLESPALHCQPSTSSAFPIGSSGFSLVK (UniProt P49790),0.0821,-0.117
NUBP2_Q9Y5Y2_54_KVGILDVDLCGPSIPR (UniProt Q9Y5Y2),-0.0291,-0.0444

# Further results:

Target,probe-labelled cysteine peptide fold change (10 µM),probe-labelled cysteine peptide fold change (50 µM)
NUP50_Q9UKX7_181_HVNTNPLCDLTPIFK (UniProt Q9UKX7),0.189,-0.0447
OCIAD2_Q56VL3_134_HCLLTCEECK (UniProt Q56VL3),-0.0564,0.0524
OBSL1_O75147_738_VVLTCELSR (UniProt O75147),-0.237,0.104
NUP88_Q99567_155_STVNCSTTPVAER (UniProt Q99567),0.0346,-0.0177
NUP43_Q8NFH3_222_VPLHCVDRHPNQQHVVATGGQDGMLSIWDVR (UniProt Q8NFH3),0.271,0.0847
OARD1_Q9Y530_33+38_TDSLAHCISEDCR (UniProt Q9Y530),-0.0653,0.0103
NUDT18_Q6ZVK8_100_EVKEEAGLHCEPETLLSVEER (UniProt Q6ZVK8),-0.155,-0.157
NUMB_P49757_58_GMHICEDAVKR (UniProt P49757),-0.162,-0.22
OGFOD3_Q6PK18_90_FIEVPCSEDYDSHRR (UniProt Q6PK18),-0.0152,-0.242
OGA_O60502_618_FEEMCGLVMGMFTR (UniProt O60502),0.41,-0.204
NUMA1_Q14980_2009_ATSCFPR (UniProt Q14980),-0.114,-0.0276
NUP37_Q8NFH4_311_TLPLCVIGGDHK (UniProt Q8NFH4),0.0221,0.0514
NUP205_Q92621_1032_TCLHAILNILEK (UniProt Q92621),0.00038,-0.0819
NVL_O15381_687_NSAPCVIFFDEVDALCPR (UniProt O15381),0.137,-0.182
NUP98_P52948_1419_KQINVCSQLDWK (UniProt P52948),0.0244,0.12
ODR4_Q5SWX8_77_AKLDNLDEEWATEHACQVSR (UniProt Q5SWX8),0.0231,-0.097
NUP43_Q8NFH3_222_QQGNEPSQILSLTGDRVPLHCVDR (UniProt Q8NFH3),0.0644,-0.0453
NUP98_P52948_1711_HIQQVDCSGNDLEQLHIK (UniProt P52948),0.207,0.108
NUTF2_P61970_114_NINDAWVCTNDMFR (UniProt P61970),-0.0149,-0.0609
OGDH_Q02218_802_FLQMCNDDPDVLPDLK (UniProt Q02218),0.202,-0.0151
NUP188_Q5SRE5_95_FLGLDEEQSVQLLQCYLQEDYR (UniProt Q5SRE5),-0.135,-0.137
